The target in one test is T1, Bcp1-myc (S. cerevisiae) (UniProt Q06338).
T1 sequence: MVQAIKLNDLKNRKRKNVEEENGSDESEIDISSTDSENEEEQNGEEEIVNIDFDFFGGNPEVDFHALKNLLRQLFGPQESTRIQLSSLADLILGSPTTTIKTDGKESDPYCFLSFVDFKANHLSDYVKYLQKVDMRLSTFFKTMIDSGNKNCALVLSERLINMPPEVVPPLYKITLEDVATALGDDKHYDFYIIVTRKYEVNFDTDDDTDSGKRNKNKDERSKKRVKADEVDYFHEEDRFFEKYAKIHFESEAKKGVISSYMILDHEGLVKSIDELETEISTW
The test can be described thus: co-IP; myc-tagged bait precipitated with anti-c-myc antibody and protein A beads from yeast extracts in IP buffer (20 mM Tris pH 7.5, 50 mM NaCl, 6 mM MgCl2, 10% glycerol), 4°C; wild-type, rkm1Δ and GAL::RPL23 (4 h glucose) strains.

Protein sequences, listed by entry. Tags and fused reporters are not part of them. Lines headed by an entry give the natural chain unless they say otherwise; changes in a name come on top.
UniProt Q12522: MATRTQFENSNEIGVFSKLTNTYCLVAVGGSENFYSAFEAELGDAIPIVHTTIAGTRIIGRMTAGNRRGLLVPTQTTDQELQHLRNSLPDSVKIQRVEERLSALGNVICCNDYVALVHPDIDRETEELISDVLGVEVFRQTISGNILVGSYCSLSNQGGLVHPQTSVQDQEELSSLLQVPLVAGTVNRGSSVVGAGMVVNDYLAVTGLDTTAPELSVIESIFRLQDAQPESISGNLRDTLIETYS
UniProt P32337: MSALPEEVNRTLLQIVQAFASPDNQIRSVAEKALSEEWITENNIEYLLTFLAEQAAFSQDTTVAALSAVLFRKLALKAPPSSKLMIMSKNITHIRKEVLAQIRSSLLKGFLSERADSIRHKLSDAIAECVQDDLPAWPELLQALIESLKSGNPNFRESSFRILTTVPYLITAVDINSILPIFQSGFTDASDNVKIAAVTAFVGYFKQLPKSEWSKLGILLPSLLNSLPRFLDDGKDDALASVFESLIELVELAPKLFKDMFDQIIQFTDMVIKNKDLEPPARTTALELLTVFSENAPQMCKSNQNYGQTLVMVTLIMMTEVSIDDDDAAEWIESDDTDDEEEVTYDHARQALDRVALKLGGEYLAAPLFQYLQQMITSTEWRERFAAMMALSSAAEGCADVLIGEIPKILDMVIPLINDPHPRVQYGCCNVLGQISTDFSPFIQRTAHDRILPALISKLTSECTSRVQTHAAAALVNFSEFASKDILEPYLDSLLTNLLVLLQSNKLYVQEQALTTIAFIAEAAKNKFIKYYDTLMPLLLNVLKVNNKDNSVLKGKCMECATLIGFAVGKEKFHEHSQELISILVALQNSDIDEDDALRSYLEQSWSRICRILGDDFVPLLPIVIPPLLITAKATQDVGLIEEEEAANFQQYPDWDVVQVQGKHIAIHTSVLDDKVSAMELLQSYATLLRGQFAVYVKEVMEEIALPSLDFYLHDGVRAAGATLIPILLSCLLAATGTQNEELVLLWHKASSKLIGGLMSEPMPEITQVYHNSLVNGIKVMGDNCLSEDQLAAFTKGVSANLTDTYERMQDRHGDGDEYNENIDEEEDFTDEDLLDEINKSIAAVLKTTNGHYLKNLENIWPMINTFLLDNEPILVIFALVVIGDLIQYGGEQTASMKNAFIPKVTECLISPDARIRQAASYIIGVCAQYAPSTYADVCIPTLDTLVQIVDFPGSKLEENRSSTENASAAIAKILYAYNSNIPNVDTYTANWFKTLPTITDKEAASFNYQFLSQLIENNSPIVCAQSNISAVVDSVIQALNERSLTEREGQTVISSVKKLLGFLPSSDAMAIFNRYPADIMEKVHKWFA
UniProt P0CX41: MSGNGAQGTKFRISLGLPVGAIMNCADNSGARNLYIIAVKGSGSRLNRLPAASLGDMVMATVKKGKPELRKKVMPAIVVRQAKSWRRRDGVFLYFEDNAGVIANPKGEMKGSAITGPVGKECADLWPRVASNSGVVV

In the next test the target is T2, Rkm1-myc (S. cerevisiae) (UniProt Q08961).
T2 sequence: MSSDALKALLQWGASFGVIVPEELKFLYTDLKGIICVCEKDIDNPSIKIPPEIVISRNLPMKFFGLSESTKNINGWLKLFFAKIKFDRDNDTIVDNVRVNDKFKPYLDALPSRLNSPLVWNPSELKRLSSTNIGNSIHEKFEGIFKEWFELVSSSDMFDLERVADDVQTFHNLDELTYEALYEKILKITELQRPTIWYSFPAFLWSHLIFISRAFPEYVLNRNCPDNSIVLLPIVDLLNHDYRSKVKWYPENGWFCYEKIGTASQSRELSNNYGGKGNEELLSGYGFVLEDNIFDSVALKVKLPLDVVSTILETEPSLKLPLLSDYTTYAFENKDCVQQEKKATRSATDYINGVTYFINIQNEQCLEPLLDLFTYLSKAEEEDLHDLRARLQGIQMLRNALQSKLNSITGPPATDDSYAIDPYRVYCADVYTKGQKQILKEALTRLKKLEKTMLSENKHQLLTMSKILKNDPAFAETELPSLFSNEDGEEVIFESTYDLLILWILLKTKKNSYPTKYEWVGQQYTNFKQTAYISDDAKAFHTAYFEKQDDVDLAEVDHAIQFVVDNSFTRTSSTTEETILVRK
The description is as above.

A further test addresses Tif6-myc (S. cerevisiae) (UniProt Q12522). The description is as above.
Test [1] deals with Bcp1-His6 (S. cerevisiae) (UniProt Q06338). Nature of the test: pull-down; Bcp1-His6 or bcp1ΔN mutants immobilised on Ni-NTA beads, recombinant uL14 or uL14 mutants.
Another test concerns the target T3, GST-Rkm1 (S. cerevisiae) (UniProt Q08961).
T3 sequence: T2 sequence
Nature of the test: pull-down; complex of GST-Rkm1 or GST-Rkm1(Y273F) with uL14 or uL14 mutants purified and held on glutathione beads; buffer alone or 0.5 mM SAM, 30°C, 80 min; three washes.

Test [2] concerns the target GST-Kap121 (S. cerevisiae) (UniProt P32337). Nature of the test: pull-down; release test: GST-Kap in complex with cargo immobilised on glutathione beads, purified Bcp1 or bcp1ΔN added for another hour at 4°C; what is left on the beads or in the supernatant by western blotting; both purified. (A western blot detects proteins with antibodies after separation by electrophoresis.)

No constants are given. Whether binding was seen depends on the method and setting. For part of these data: Binding can be weak; no strength is given. For part of these data: In cells and extracts the contact can be indirect. For part of these data: Tags and fused reporters may be left off the sequences shown.

As for uL14(Δloop)-HA (from UniProt P0CX41), the binding result with Bcp1-myc (S. cerevisiae) is listed as “no binding”; with Rkm1-myc (S. cerevisiae) it was “binds”; in the test with Tif6-myc (S. cerevisiae) it was “binds”.
Regarding “uL14Δloop (recombinant) (from UniProt P0CX41)”, the binding entry is given as “no binding” in test [1], “binds” with GST-Rkm1 (S. cerevisiae) and “binds” in test [2].

Source of the values: article PMC11248248.
